{"source": "the supplement of paper PMC3334620", "note": "Whole data set: some 33,000 sequences, median “E-score (-0.5 to 0.5)” near -0.0034, cut for the highest 2% near 0.25. The list shows a part of the results."}
{"biological_target": "T1, Yap3 (UniProt P38749)", "T1 sequence": "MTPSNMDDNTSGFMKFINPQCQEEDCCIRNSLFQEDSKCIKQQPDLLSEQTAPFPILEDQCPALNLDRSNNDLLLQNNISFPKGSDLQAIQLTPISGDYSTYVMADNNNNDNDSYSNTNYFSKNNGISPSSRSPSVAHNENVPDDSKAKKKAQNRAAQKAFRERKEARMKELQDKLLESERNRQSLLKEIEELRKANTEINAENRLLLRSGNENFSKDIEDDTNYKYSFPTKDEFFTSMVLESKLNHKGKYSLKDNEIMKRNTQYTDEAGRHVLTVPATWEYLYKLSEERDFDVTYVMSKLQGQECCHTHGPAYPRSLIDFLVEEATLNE", "test": "PBM E-score (8-mer binding enrichment) (E-score (-0.5 to 0.5)); higher = stronger / more preferred TF binding", "details": "protein concentration: 100 nM; construct: GST-full length", "method_in_brief": "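Full-length yeast transcription factors or their DNA-binding domains, GST-tagged and expressed with PURExpress, were applied at about 100-200 nM to universal all-10-mer Agilent arrays. These arrays had been made double-stranded by primer extension on fresh or once-stripped slides. Detection used fluorescent anti-GST, normalisation used masliner, and E-scores for ungapped eight-base words pooled with reverse complements came from the Universal PBM Analysis Suite.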"}
{"sequence": "AAGCCTCT", "PBM E-score": -0.159}
{"sequence": "AAGCTGCA", "PBM E-score": 0.0959}
{"sequence": "TACGAACA", "PBM E-score": 0.119}
{"sequence": "GCGCGACA", "PBM E-score": 0.0138}
{"sequence": "GCACCAAC", "PBM E-score": -0.115}
{"sequence": "CAGAGCTC", "PBM E-score": -0.13}
{"sequence": "ACGGGCTC", "PBM E-score": -0.383}
{"sequence": "GAACCGTC", "PBM E-score": -0.0728}
{"sequence": "AGGCACAA", "PBM E-score": -0.0252}
{"sequence": "AGAGATCT", "PBM E-score": -0.145}
{"sequence": "ACGGTTCA", "PBM E-score": -0.234}
{"sequence": "GAGTTACC", "PBM E-score": -0.109}
{"sequence": "AGACGCGG", "PBM E-score": -0.0379}
{"sequence": "GAGGTGCC", "PBM E-score": -0.132}
{"sequence": "GGGAATGA", "PBM E-score": 0.225}
{"sequence": "ATCTATTG", "PBM E-score": -0.108}
{"sequence": "TACGACTA", "PBM E-score": 0.0834}
{"sequence": "GCCACTTA", "PBM E-score": 0.0165}
{"sequence": "CAGCATAC", "PBM E-score": -0.0638}
{"sequence": "CCCCACTA", "PBM E-score": -0.135}
{"sequence": "CTATGCGA", "PBM E-score": -0.187}
{"sequence": "CCTTGAGA", "PBM E-score": 0.13}
{"sequence": "AACTTAAT", "PBM E-score": 0.198}
{"sequence": "ACATAGTA", "PBM E-score": 0.0479}
{"sequence": "AACATATG", "PBM E-score": 0.16}
{"sequence": "AGGGTAAA", "PBM E-score": 0.121}
{"sequence": "CCAATCAA", "PBM E-score": 0.0581}
{"sequence": "CCCGTGCG", "PBM E-score": -0.131}
{"sequence": "GGCTAGCA", "PBM E-score": -0.0371}
{"sequence": "ACCAGATC", "PBM E-score": -0.0474}
{"sequence": "ATAATCAT", "PBM E-score": 0.344}
{"sequence": "CATGACCA", "PBM E-score": 0.117}
{"sequence": "GAGTGTAA", "PBM E-score": -0.0811}
{"sequence": "GAGCTCGC", "PBM E-score": -0.0307}
{"sequence": "AGGGAACC", "PBM E-score": -0.192}
{"sequence": "CGATCCTA", "PBM E-score": -0.0116}
{"sequence": "ACAACGCG", "PBM E-score": 0.0663}
{"sequence": "AAGGCGGC", "PBM E-score": -0.325}
{"sequence": "AGGGCAAT", "PBM E-score": -0.122}
{"sequence": "CCAGTATC", "PBM E-score": -0.0113}
{"sequence": "AAGGAAAA", "PBM E-score": 0.156}
{"sequence": "CTTGCCCC", "PBM E-score": -0.225}
{"sequence": "ATATCTTC", "PBM E-score": 0.222}
{"sequence": "GAATGGGA", "PBM E-score": -0.11}
{"sequence": "GATCGTCC", "PBM E-score": -0.0579}
{"sequence": "ACTACGTC", "PBM E-score": -0.0702}
{"sequence": "GCGCAGTA", "PBM E-score": 0.109}
{"sequence": "AGAACAGG", "PBM E-score": -0.157}
{"sequence": "CATAATCC", "PBM E-score": 0.0889}
{"sequence": "TTGTTAAA", "PBM E-score": -0.0474}
{"sequence": "AAGCACCC", "PBM E-score": -0.0712}
{"sequence": "CACGGTTC", "PBM E-score": -0.281}
{"sequence": "CCGAATTA", "PBM E-score": -0.0509}
{"sequence": "ATCGAACG", "PBM E-score": -0.00405}
{"sequence": "AAATATGA", "PBM E-score": 0.224}
{"sequence": "ATGACGCC", "PBM E-score": -0.074}
{"sequence": "ACCTACCT", "PBM E-score": -0.0402}
{"sequence": "GGTGTCGA", "PBM E-score": 0.0463}
{"sequence": "CTGAGGAC", "PBM E-score": -0.0551}
{"sequence": "ACATCTGC", "PBM E-score": -0.128}
{"sequence": "AAGTGTCG", "PBM E-score": -0.0231}
{"sequence": "CGTCGGTC", "PBM E-score": -0.0654}
{"sequence": "ATCCACAC", "PBM E-score": -0.0157}
{"sequence": "TACTTCCA", "PBM E-score": 0.137}
{"sequence": "GATGATCA", "PBM E-score": 0.0201}
{"sequence": "GCCATACA", "PBM E-score": 0.0174}
{"sequence": "CGCGCTAG", "PBM E-score": 0.0524}
{"sequence": "GAGCACGA", "PBM E-score": -0.0358}
{"sequence": "ACTAATCG", "PBM E-score": 0.222}
{"sequence": "AGCTAGAT", "PBM E-score": 0.0423}
{"sequence": "GGCCGTAA", "PBM E-score": 0.022}
{"sequence": "ATAGGAGA", "PBM E-score": -0.198}
{"sequence": "TAGGTTCA", "PBM E-score": 0.02}
{"sequence": "CCCCTTGA", "PBM E-score": 0.016}
{"sequence": "GTTAAGCA", "PBM E-score": 0.0686}
{"sequence": "CCGGAATA", "PBM E-score": 0.0462}
{"sequence": "ATCAAATG", "PBM E-score": 0.0579}
{"sequence": "GCAGACAC", "PBM E-score": 0.0149}
{"sequence": "GTTAGCTA", "PBM E-score": -0.0703}
{"sequence": "CGGCATGC", "PBM E-score": 0.0617}
{"sequence": "AGAATGCA", "PBM E-score": 0.11}
{"sequence": "TGCCTACA", "PBM E-score": 0.0232}
{"sequence": "ACTAGGGG", "PBM E-score": -0.199}
{"sequence": "AATGTAAA", "PBM E-score": 0.231}
{"sequence": "AGGTATAA", "PBM E-score": 0.0868}
{"sequence": "CGTCGTGC", "PBM E-score": 0.0894}
{"sequence": "GTGGTTAA", "PBM E-score": 0.14}
{"sequence": "GCGGGGAC", "PBM E-score": -0.0993}
{"sequence": "CACGCATG", "PBM E-score": -0.184}
{"sequence": "AGATCGTG", "PBM E-score": -0.00676}
{"sequence": "AAGGCCCA", "PBM E-score": -0.135}
{"sequence": "CCTGGTCA", "PBM E-score": -0.0725}
{"sequence": "AATCATCT", "PBM E-score": -0.0336}
{"sequence": "ACCTAGTA", "PBM E-score": -0.119}
{"sequence": "AAGATAAG", "PBM E-score": 0.0204}
{"sequence": "CACGGCGG", "PBM E-score": -0.206}
{"sequence": "CTATACGA", "PBM E-score": -0.0189}
{"sequence": "ACCTATCA", "PBM E-score": -0.0173}
{"sequence": "ATACGCAT", "PBM E-score": 0.134}
{"sequence": "ATATGCTC", "PBM E-score": 0.0426}
{"sequence": "TTCTGCAA", "PBM E-score": 0.121}
{"sequence": "GGCCTTAA", "PBM E-score": 0.116}
{"sequence": "TCTGCCAA", "PBM E-score": -0.133}
{"sequence": "CCATATGG", "PBM E-score": 0.0953}
{"sequence": "AAGCAGGA", "PBM E-score": 0.0482}
{"sequence": "CTGAGTCA", "PBM E-score": 0.222}
{"sequence": "AACCAAGT", "PBM E-score": 0.119}
{"sequence": "ATGAGAGA", "PBM E-score": 0.136}
{"sequence": "ATGTGACC", "PBM E-score": -0.136}
{"sequence": "GGGCTGTA", "PBM E-score": -0.239}
{"sequence": "TACCGGTA", "PBM E-score": 0.115}
{"sequence": "AATGCGGA", "PBM E-score": 0.0814}
{"sequence": "AGACGATA", "PBM E-score": 0.0424}
{"sequence": "AGACCTGC", "PBM E-score": -0.25}
{"sequence": "AGTCTGCC", "PBM E-score": -0.249}
{"sequence": "AACCGAAA", "PBM E-score": 0.0863}
{"sequence": "AAGACTTA", "PBM E-score": -0.0694}
{"sequence": "CCCCCAGC", "PBM E-score": -0.372}
{"sequence": "CATACCGA", "PBM E-score": -0.0505}
{"sequence": "GGTCCCAA", "PBM E-score": -0.151}
{"sequence": "CGACTGGA", "PBM E-score": -0.0599}
{"sequence": "CTCGACTC", "PBM E-score": -0.00468}
{"sequence": "GAAATTCC", "PBM E-score": 0.0452}
{"sequence": "ATGGTAAG", "PBM E-score": -0.0982}
{"sequence": "ACCTACAA", "PBM E-score": 0.0492}
{"sequence": "AAATAGTT", "PBM E-score": 0.218}
{"sequence": "AACGCGCC", "PBM E-score": -0.0619}
{"sequence": "CAAACATC", "PBM E-score": 0.0509}
{"sequence": "ACAGGTAC", "PBM E-score": -0.0601}
{"sequence": "TATCAGGA", "PBM E-score": 0.00895}
{"sequence": "GCGGACGC", "PBM E-score": -0.218}
{"sequence": "CCCATTGC", "PBM E-score": -0.064}
{"sequence": "ACAGTTCA", "PBM E-score": 0.105}
{"sequence": "GGATGGAC", "PBM E-score": -0.102}
{"sequence": "CATTCTGA", "PBM E-score": 0.141}
{"sequence": "CTACCCGC", "PBM E-score": -0.184}
{"sequence": "CCTCCCGA", "PBM E-score": -0.338}
{"sequence": "GAACGATC", "PBM E-score": 0.0575}
{"sequence": "TCACTGGA", "PBM E-score": -0.0545}
{"sequence": "GTCTGTAA", "PBM E-score": -0.0725}
{"sequence": "ATCACTGC", "PBM E-score": 0.0769}
{"sequence": "CGCCTCCA", "PBM E-score": -0.0788}
{"sequence": "GCGCTCAA", "PBM E-score": -0.131}
{"sequence": "CACCCTAA", "PBM E-score": 0.0377}
{"sequence": "TAAATGAA", "PBM E-score": 0.117}
{"sequence": "GGCCCAAC", "PBM E-score": -0.24}
{"sequence": "ACCACATG", "PBM E-score": 0.17}
{"sequence": "CCGGAACA", "PBM E-score": -0.0746}
{"sequence": "GCTCTGAC", "PBM E-score": -0.248}
{"sequence": "CTGCCAAC", "PBM E-score": -0.105}
{"sequence": "ACCCCGTC", "PBM E-score": -0.236}
{"sequence": "ACTTAGGC", "PBM E-score": -0.212}
{"sequence": "AGTTAAAC", "PBM E-score": 0.15}
{"sequence": "AACCATGC", "PBM E-score": 0.132}
{"sequence": "ACGGCCAG", "PBM E-score": -0.115}
{"sequence": "AAAGTCAA", "PBM E-score": 0.0668}
{"sequence": "AAATCAAT", "PBM E-score": 0.199}
{"sequence": "CGGCCCCG", "PBM E-score": -0.423}
{"sequence": "AGGGTTAC", "PBM E-score": -0.219}
{"sequence": "AGTCCAGG", "PBM E-score": -0.167}
{"sequence": "CAACCGCG", "PBM E-score": 0.323}
{"sequence": "AACAAGAT", "PBM E-score": 0.154}
{"sequence": "CGATGCAC", "PBM E-score": -0.124}
{"sequence": "CTATCTAA", "PBM E-score": 0.0306}
{"sequence": "GCAGGCAA", "PBM E-score": -0.0308}
{"sequence": "AGGGTTTC", "PBM E-score": -0.0867}
{"sequence": "GCTGTCAC", "PBM E-score": -0.151}
{"sequence": "CGGTTCCA", "PBM E-score": -0.161}
{"sequence": "GATCACAC", "PBM E-score": -0.0519}
{"sequence": "CACTCTAG", "PBM E-score": -0.0617}
{"sequence": "CCCGGAGG", "PBM E-score": -0.417}
{"sequence": "ACAACGTA", "PBM E-score": 0.0865}
